Values quoted from earlier work, collected in patent US9192591B2, “Method and composition for treating alzheimer-type dementia” (priority 2008, dated 2015).
For some assays here: At least one read-out could not be matched to a standard name with certainty. For some assays here: At least one compound was matched to its structure with a doubt left.

How the values were obtained:
[1] = test system: patients with dementias of the Alzheimer type; details: donepezil 5-10 mg per day; rivastigmine 1-4 and 6-12 mg per day; galantamine 8-32 mg per day
[2] = test system: patients with Alzheimer's disease; details: titration phase, b.i.d. or t.i.d.

Row | Structure (SMILES) | benefits on cognitive and global measures relevant to dementia [1] | administered rivastigmine dose reached (mean MTD) with anti-emetic medication [2]
1 | COc1ccc2c3c1O[C@H]1C[C@@H](O)C=C[C@@]31CCN(C)C2 [galantamine, 4aS,6R,8aS-3-methoxy-11-methyl-4-a,5,9,10,11,12-hexahydroxy-6H-benzofuro[3a,3,2-e,f]benzazepin-6-ol] | small, but statistically significant, benefits | 
2 | CCN(C)C(=O)Oc1cccc([C@H](C)N(C)C)c1 [rivastigmine, (S)—N-Ethyl-N-methyl-3-[1-(dimethylamino)ethyl]-phenyl carbamate] |  | at most 8.8 mg daily
